Laboratory results published in paper doi:10.1101/2025.01.15.633165.

Amino acid sequences for entries named in this document (tags omitted). A change or cut given only in a name is not applied to a line headed by its entry.
UniProt F4JHB3: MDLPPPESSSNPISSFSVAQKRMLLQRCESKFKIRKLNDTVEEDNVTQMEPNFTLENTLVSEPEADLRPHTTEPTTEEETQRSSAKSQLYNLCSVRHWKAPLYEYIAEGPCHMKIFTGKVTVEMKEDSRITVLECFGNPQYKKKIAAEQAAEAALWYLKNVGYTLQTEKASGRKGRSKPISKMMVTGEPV
UniProt Q8H1D4: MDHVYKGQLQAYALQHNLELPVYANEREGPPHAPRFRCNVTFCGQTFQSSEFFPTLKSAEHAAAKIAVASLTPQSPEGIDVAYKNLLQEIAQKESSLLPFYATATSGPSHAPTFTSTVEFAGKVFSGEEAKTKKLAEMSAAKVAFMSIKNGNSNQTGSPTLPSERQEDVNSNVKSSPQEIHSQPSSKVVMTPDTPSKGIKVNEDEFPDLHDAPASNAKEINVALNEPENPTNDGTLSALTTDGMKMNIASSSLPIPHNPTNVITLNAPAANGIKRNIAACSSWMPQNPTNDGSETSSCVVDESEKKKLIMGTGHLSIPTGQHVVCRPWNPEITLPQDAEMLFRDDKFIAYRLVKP

How the values were obtained:
[1] = target: DRB7.2 (M1-V190) (A. thaliana) (UniProt F4JHB3); test: NMR titration
[2] = target: DRB7.2 (M1-V190) (A. thaliana) (UniProt F4JHB3); test: ITC

| binding [1] | binding [2] | Substance |
| --- | --- | --- |
| binds |  | DRB4 (1-355) (from UniProt Q8H1D4) |
|  | no binding | DRB4D1D2 (1-153) (from UniProt Q8H1D4) (domain or fragment) |

No constants are given. Whether binding was seen depends on the method and setting. For some assays here: Binding can be weak; no strength is given.
